The values that follow come from paper PMC5945610.

Results are given in words; binding and its absence hold for the method and conditions named. In cells and extracts the contact can be indirect. Binding can be weak; no strength is given. Where a sequence is shown, tags or fusion partners need not be part of it.

The target in experiment [1] is C-terminal domain of USP7 (human). The experiment is described as follows: co-IP; HEK293 cells transfected with tagged constructs; 3 ug antibody overnight at 4 C, protein A + G agarose beads, immunoblot; IgG as negative control. A general note: Immunoblotting shows a protein as a band on a membrane.
Experiment [2] addresses core domain of USP7 (human). Described as above.

B1: HA-TSPY1 (protein, UniProt Q01534 1-308)
chain: MRPEGSLTYRVPERLRQGFCGVGRAAQALVCASAKEGTAFRMEAVQEGAAGVESEQAALGEEAVLLLDDIMAEVEVVAEEEGLVERREEAQRAQQAVPGPGPMTPESAPEELLAVQVELEPVNAQARKAFSRQREKMERRRKPHLDRRGAVIQSVPGFWANVIANHPQMSALITDEDEDMLSYMVSLEVGEEKHPVHLCKIMLFFRSNPYFQNKVITKEYLVNITEYRASHSTPIEWYPDYEVEAYRRRHHNSSLNFFNWFSDHNFAGSNKIAEILCKDLWRNPLQYYKRMKPPEEGTETSGDSQLLS
On to B1, for which the binding entry in experiment [1] and in experiment [2] was “binds” throughout.
